Measurements published in the supplement of paper PMC10849652.
The list shows a part of the results.

Protein sequences, listed by entry. Tags and fused reporters are not part of them. Lines headed by an entry give the natural chain unless they say otherwise; changes in a name come on top.
UniProt Q9NS69: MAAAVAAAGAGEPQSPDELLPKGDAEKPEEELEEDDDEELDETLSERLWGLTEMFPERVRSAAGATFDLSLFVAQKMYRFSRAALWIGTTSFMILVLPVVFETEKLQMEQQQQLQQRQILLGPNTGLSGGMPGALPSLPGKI
UniProt Q13625: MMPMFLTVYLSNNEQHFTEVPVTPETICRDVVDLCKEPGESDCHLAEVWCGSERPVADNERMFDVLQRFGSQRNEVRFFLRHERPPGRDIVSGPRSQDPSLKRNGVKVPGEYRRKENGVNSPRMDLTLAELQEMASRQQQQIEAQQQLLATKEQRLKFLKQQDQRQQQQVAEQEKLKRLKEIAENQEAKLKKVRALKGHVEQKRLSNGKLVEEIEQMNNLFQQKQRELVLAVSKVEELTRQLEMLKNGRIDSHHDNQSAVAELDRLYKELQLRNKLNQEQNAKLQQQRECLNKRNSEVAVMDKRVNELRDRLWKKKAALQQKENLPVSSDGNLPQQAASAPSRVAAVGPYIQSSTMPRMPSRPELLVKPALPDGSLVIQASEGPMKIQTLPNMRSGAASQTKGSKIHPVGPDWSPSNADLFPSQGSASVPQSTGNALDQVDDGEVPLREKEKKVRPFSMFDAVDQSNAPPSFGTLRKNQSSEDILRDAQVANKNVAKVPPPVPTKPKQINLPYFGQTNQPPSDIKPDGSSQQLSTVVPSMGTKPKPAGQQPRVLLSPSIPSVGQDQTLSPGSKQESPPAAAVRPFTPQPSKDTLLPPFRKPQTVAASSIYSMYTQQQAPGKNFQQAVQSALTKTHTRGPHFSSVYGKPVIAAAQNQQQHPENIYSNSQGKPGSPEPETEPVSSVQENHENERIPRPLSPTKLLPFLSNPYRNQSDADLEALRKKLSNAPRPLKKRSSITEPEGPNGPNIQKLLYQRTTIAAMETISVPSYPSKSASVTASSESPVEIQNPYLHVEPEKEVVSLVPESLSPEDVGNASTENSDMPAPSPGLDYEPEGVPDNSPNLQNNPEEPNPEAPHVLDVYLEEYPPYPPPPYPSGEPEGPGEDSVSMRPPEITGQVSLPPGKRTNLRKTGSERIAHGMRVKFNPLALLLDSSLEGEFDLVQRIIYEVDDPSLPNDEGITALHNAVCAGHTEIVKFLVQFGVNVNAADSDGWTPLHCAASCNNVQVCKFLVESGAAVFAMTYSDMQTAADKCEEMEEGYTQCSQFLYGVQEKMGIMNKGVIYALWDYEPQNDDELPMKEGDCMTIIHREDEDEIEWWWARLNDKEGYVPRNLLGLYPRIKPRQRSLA
UniProt Q6ZXV5: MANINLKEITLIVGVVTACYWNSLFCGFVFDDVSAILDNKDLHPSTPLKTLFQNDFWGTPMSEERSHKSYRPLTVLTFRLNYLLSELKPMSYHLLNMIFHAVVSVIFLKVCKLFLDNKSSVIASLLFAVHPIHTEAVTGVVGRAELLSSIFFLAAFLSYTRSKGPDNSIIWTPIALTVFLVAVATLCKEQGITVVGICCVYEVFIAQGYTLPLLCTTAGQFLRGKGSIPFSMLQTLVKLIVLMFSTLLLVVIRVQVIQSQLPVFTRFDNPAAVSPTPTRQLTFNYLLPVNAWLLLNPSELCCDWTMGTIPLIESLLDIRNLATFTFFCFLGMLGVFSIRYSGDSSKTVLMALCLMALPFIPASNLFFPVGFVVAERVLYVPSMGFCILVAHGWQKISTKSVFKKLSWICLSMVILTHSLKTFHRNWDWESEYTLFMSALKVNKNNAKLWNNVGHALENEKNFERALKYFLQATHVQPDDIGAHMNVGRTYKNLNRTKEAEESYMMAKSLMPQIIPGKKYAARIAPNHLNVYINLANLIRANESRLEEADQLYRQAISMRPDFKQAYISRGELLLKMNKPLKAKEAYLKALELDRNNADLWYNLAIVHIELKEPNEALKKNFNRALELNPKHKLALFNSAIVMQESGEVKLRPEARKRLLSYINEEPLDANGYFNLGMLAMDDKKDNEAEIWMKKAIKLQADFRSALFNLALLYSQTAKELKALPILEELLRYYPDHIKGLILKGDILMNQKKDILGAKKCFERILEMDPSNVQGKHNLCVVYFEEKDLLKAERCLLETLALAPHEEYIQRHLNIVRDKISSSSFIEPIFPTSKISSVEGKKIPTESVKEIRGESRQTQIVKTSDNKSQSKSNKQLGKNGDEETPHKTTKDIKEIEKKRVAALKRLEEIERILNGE
UniProt Q15388, whole entry, looked up: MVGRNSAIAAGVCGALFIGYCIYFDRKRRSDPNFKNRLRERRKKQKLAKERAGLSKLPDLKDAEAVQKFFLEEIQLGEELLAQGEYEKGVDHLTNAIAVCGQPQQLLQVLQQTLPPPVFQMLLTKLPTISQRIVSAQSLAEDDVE
UniProt O60704: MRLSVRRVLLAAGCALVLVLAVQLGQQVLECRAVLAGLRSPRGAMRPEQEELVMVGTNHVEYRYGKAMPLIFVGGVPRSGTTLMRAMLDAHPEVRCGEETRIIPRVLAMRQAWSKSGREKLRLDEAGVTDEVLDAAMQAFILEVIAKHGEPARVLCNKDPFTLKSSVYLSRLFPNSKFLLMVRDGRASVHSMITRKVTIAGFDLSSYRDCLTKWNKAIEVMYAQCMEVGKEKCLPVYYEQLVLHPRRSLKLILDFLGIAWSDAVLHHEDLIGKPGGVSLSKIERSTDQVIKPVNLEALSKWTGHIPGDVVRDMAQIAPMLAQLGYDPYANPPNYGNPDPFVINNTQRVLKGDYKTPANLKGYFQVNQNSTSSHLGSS
UniProt P67936, whole entry, looked up: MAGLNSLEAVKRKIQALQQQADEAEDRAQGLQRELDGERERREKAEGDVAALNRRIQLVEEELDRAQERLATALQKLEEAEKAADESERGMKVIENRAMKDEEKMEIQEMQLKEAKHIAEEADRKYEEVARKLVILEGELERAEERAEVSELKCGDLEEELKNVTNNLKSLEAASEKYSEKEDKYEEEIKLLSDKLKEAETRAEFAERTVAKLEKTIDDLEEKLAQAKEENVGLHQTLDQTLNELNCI
UniProt Q03169: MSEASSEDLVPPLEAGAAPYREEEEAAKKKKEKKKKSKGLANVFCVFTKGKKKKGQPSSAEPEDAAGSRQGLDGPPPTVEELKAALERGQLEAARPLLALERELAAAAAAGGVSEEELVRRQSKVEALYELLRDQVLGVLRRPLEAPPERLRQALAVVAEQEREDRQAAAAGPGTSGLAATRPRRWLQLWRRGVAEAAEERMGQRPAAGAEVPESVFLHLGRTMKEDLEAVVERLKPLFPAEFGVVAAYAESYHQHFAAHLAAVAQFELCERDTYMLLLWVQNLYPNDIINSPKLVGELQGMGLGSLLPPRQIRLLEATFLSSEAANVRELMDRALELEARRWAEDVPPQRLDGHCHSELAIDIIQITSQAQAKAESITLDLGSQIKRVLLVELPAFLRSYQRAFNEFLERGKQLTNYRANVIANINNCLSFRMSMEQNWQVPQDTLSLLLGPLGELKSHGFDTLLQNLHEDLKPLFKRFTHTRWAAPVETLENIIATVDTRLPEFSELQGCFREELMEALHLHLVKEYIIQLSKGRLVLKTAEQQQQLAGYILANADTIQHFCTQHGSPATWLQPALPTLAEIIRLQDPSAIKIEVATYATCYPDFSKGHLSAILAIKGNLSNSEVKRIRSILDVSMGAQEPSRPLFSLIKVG
UniProt P21580: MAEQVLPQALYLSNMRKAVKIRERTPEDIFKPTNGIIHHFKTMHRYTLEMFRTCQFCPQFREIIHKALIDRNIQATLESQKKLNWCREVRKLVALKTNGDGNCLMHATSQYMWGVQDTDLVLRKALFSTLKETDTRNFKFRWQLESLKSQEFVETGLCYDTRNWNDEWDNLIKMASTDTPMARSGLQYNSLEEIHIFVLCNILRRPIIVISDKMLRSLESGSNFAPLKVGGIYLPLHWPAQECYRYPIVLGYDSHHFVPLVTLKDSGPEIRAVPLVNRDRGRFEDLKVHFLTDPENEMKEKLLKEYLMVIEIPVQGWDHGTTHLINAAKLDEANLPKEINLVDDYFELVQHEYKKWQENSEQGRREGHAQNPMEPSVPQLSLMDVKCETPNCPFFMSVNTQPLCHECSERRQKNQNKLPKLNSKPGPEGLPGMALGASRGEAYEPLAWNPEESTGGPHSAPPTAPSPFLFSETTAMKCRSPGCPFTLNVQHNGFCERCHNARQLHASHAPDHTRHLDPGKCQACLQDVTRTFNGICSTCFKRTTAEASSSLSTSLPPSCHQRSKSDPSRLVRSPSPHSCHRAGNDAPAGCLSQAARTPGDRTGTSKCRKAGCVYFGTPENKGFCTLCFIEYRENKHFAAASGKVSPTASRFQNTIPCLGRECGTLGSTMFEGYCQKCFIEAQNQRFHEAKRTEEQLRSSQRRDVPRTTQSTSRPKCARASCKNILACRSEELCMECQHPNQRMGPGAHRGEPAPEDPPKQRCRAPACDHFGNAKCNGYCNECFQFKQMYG
UniProt O14657: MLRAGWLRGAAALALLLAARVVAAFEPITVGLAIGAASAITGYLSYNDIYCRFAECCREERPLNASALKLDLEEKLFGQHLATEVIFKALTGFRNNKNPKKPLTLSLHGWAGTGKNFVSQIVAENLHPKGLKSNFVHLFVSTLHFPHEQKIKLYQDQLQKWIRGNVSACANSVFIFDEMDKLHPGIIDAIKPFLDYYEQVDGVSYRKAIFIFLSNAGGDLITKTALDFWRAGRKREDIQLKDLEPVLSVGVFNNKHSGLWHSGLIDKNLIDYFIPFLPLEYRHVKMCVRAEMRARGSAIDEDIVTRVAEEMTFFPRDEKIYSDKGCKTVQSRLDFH
UniProt O60784, whole entry, looked up: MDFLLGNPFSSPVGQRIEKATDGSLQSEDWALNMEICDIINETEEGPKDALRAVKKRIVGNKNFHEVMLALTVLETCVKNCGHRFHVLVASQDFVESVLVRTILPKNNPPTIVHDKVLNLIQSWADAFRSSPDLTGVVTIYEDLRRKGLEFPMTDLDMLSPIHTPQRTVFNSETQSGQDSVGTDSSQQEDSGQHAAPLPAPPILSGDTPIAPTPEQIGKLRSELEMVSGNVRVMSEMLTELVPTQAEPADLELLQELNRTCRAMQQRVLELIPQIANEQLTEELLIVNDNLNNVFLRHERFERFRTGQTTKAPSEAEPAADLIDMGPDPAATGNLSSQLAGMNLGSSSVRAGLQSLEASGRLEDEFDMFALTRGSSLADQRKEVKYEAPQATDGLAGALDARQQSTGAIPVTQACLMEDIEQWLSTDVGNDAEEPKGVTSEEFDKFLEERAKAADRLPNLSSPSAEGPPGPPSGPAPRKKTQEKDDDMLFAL
UniProt Q9NV96: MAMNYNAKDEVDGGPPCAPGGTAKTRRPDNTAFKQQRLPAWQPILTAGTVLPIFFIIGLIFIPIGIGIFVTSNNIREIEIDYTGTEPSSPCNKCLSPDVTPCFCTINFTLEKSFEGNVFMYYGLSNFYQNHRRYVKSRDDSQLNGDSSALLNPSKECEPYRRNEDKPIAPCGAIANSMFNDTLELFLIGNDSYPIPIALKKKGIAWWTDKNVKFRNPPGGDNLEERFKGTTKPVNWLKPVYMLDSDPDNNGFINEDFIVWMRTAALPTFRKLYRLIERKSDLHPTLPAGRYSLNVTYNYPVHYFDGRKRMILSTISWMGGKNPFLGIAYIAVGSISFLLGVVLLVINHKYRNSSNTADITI
UniProt A5PLL7: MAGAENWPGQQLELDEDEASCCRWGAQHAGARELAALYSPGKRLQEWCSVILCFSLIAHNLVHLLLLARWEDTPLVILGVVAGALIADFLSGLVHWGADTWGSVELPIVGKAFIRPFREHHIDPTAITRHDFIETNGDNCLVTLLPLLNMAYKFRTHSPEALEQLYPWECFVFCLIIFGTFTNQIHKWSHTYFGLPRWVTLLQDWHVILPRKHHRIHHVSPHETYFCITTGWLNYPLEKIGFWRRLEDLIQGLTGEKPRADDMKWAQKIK

Experiments:
Experiment in all cases: log2 fold change, soluble protein after heating vs DMSO (PISA); higher = thermal stabilisation; K562 lysate, 10 uM; active = over 0.2 and 3.5 SD of the protein, either way, in both replicates (recomputed)
lapatinib = compound: CS(=O)(=O)CCNCc1ccc(-c2ccc3ncnc(Nc4ccc(OCc5cccc(F)c5)c(Cl)c4)c3c2)o1 [lapatinib]
Outline: (§1)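 Following dounce homogenisation of K562 pellets in PBS pH 7.4 with 1 mM MgCl2, crude extract at 1 mg/mL protein was incubated for 30 min with 10 μM compound. Aliquots were then heated for 3 min over 48°C-58°C and pooled, NP-40 was added to 0.5% at 4°C, and soluble protein was recovered as the supernatant at 21,000xg for 90 min. Channel-sum-equalised TMTpro 16plex LC-MS/MS quantified this protein. Each value, from duplicates, is a log-two fold change in thermal stability relative to solvent controls.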

pictilisib = compound: CS(=O)(=O)N1CCN(Cc2cc3nc(-c4cccc5[nH]ncc45)nc(N4CCOCC4)c3s2)CC1 [pictilisib]
Outline: as §1

crizotinib = compound: C[C@@H](Oc1cc(-c2cnn(C3CCNCC3)c2)cnc1N)c1c(Cl)ccc(F)c1Cl [crizotinib]
Outline: as §1

[1] = compound: C[C@H](C1=CC=C(C=C1)C(=O)NC2=C3C=CNC3=NC=C2)N
Outline: as §1

duvelisib = compound: C[C@H](Nc1ncnc2nc[nH]c12)c1cc2cccc(Cl)c2c(=O)n1-c1ccccc1 [duvelisib]
Outline: as §1

gandotinib = compound: Cc1cc(Nc2cc(CN3CCOCC3)c3nc(C)c(Cc4ccc(Cl)cc4F)n3n2)n[nH]1 [gandotinib]
Outline: as §1

tozasertib = compound: Cc1cc(Nc2cc(N3CCN(C)CC3)nc(Sc3ccc(NC(=O)C4CC4)cc3)n2)n[nH]1 [tozasertib]
Outline: as §1

doramapimod = compound: Cc1ccc(-n2nc(C(C)(C)C)cc2NC(=O)Nc2ccc(OCCN3CCOCC3)c3ccccc23)cc1 [doramapimod]
Outline: as §1

bafetinib = compound: Cc1ccc(NC(=O)c2ccc(CN3CC[C@H](N(C)C)C3)c(C(F)(F)F)c2)cc1Nc1nccc(-c2cncnc2)n1 [bafetinib]
Outline: as §1

[2] = compound: Cc1cccc(CC(=O)N2CCc3c2ccc(-c2cn(C)c4ncnc(N)c24)c3F)n1
Outline: as §1

nilotinib = compound: Cc1cn(-c2cc(NC(=O)c3ccc(C)c(Nc4nccc(-c5cccnc5)n4)c3)cc(C(F)(F)F)c2)cn1 [nilotinib]
Outline: as §1

[3] = compound: Cc1nc(Nc2n[nH]c3c2CN(C(=O)N[C@H](CN(C)C)c2ccccc2)C3(C)C)c2sccc2n1
Outline: as §1

dasatinib = compound: Cc1nc(Nc2ncc(C(=O)Nc3c(C)cccc3Cl)s2)cc(N2CCN(CCO)CC2)n1 [dasatinib]
Outline: as §1

[4] = compound: Cc1ncc(-c2ccnc(Nc3ccc(S(C)(=O)=O)cc3)n2)n1C(C)C
Outline: as §1

[5] = compound: Cn1cc(-c2ccc3c(c2)CCN3C(=O)Cc2cccc(C(F)(F)F)c2)c2c(N)ncnc21
Outline: as §1

quisinostat = compound: Cn1cc(CNCC2CCN(c3ncc(C(=O)NO)cn3)CC2)c2ccccc21 [quisinostat]
Outline: as §1

tipifarnib = compound: Cn1cncc1[C@@](N)(c1ccc(Cl)cc1)c1ccc2c(c1)c(-c1cccc(Cl)c1)cc(=O)n2C [tipifarnib]
Outline: as §1

[6] = compound: NC(=O)Nc1cc(-c2cccc(F)c2)sc1C(=O)N[C@H]1CCCNC1
Outline: as §1

[7] = compound: NC(=O)c1cnc(N[C@@H]2CCCC[C@@H]2N)nc1Nc1cccc(-n2nccn2)c1
Outline: as §1

[8] = compound: NC1(c2ccc(-c3nc4ccn5c(=O)[nH]nc5c4cc3-c3ccccc3)cc2)CCC1
Outline: as §1

| Target | log2 fold change (lapatinib) | log2 fold change (pictilisib) | log2 fold change (crizotinib) | log2 fold change [1] | log2 fold change (duvelisib) | log2 fold change (gandotinib) | log2 fold change (tozasertib) | log2 fold change (doramapimod) | log2 fold change (bafetinib) | log2 fold change [2] | log2 fold change (nilotinib) | log2 fold change [3] | log2 fold change (dasatinib) | log2 fold change [4] | log2 fold change [5] | log2 fold change (quisinostat) | log2 fold change (tipifarnib) | log2 fold change [6] | log2 fold change [7] | log2 fold change [8] |
| --- | --- | --- | --- | --- | --- | --- | --- | --- | --- | --- | --- | --- | --- | --- | --- | --- | --- | --- | --- | --- |
| TOMM22 (UniProt Q9NS69) | inactive: 0.029 | inactive: -0.016 | inactive: -0.01 | inactive: -0.049 | inactive: 0.045 | inactive: 0.025 | inactive: -0.005 | inactive: -0.006 | inactive: -0.019 | inactive: -0.01 | inactive: 0.043 | inactive: 0.011 | inactive: 0.033 | inactive: 0.094 | inactive: -0.073 | inactive: -0.021 | inactive: -0.014 | inactive: 0.038 | inactive: -0.054 | inactive: 0.027 |
| TOP3B (UniProt O95985) | inactive: -0.018 | inactive: -0.018 | inactive: -0.004 | inactive: -0.025 | inactive: 0.005 | inactive: -0.022 | inactive: -0.046 | inactive: 0.006 | inactive: -0.016 | inactive: 0.033 | inactive: 0.027 | inactive: 0.019 | inactive: 0.002 | inactive: 0.003 | inactive: -0.016 | inactive: 0.004 | inactive: 0.007 | inactive: -0.016 | inactive: -0.021 | inactive: 0.021 |
| TMEM63A (UniProt O94886) | inactive: -0.009 | inactive: -0.013 | inactive: 0.072 | inactive: 0.095 | inactive: 0.022 | inactive: -0.012 | inactive: 0.041 | inactive: 0.02 | inactive: 0.037 | inactive: -0.136 | inactive: 0.092 | inactive: 0.023 | inactive: 0.008 | inactive: -0.027 | inactive: 0.048 | inactive: 0.078 | inactive: -0.106 | inactive: 0 | inactive: 0.044 | inactive: 0.006 |
| TP53BP2 isoform 3 (UniProt Q13625) | inactive: 0.009 | inactive: -0.072 | inactive: -0.002 | inactive: -0.026 | inactive: -0.041 | inactive: 0.002 | inactive: -0.116 | inactive: 0.03 | inactive: 0.028 | inactive: -0.054 | inactive: -0.024 | inactive: -0.034 | inactive: 0.013 | inactive: 0.01 | inactive: -0.046 | inactive: -0.067 | inactive: -0.018 | inactive: 0.028 | inactive: -0.022 | inactive: 0.022 |
| TMTC3 (UniProt Q6ZXV5) | inactive: -0.04 | inactive: -0.068 | inactive: -0.003 | inactive: 0.008 | inactive: -0.044 | inactive: -0.064 | inactive: -0.003 | inactive: 0.062 | inactive: 0 | inactive: -0.012 | inactive: -0.044 | inactive: 0.014 | inactive: -0.012 | inactive: 0.036 | inactive: 0.056 | inactive: 0.081 | inactive: 0.023 | inactive: 0.004 | inactive: 0.019 | inactive: -0.002 |
| TOMM20 (UniProt Q15388) | inactive: 0.031 | inactive: 0.015 | inactive: -0.131 | inactive: 0.036 | inactive: 0.028 | inactive: 0.066 | inactive: 0.048 | inactive: -0.035 | inactive: -0.046 | inactive: 0 | inactive: -0.06 | inactive: -0.073 | inactive: 0.066 | inactive: 0.044 | inactive: 0.007 | inactive: -0.108 | inactive: 0.074 | inactive: 0.062 | inactive: 0.016 | inactive: -0.048 |
| TPST2 (UniProt O60704) | inactive: 0.028 | inactive: 0.621 | inactive: -0.046 | active: -0.671 | inactive: -0.029 | inactive: 0.109 | inactive: -0.043 | inactive: 0.057 | inactive: 0.022 | inactive: 0.126 | inactive: -0.02 | inactive: -0.03 | inactive: -0.007 | inactive: 0.016 | inactive: 0.008 | inactive: -0.076 | inactive: -0.058 | inactive: 0.064 | inactive: -0.064 | inactive: -0.087 |
| TPM4 isoform 2 (UniProt P67936) | inactive: 0.007 | inactive: 0 | inactive: 0.091 | active: 0.329 | inactive: 0.011 | inactive: -0.138 | inactive: -0.027 | inactive: 0.002 | inactive: 0.075 | inactive: -0.164 | inactive: 0.052 | inactive: -0.048 | inactive: 0.059 | inactive: 0.076 | inactive: -0.011 | inactive: 0.122 | inactive: 0.024 | inactive: -0.039 | inactive: 0.029 | inactive: 0.02 |
| TNFAIP2 (UniProt Q03169) | inactive: -0.079 | inactive: -0.053 | inactive: -0.094 | inactive: -0.206 | inactive: 0.002 | inactive: 0.267 | inactive: 0.005 | inactive: 0.001 | inactive: -0.093 | inactive: 0.281 | inactive: 0.034 | inactive: -0.161 | inactive: -0.011 | inactive: 0.05 | inactive: -0.007 | inactive: -0.176 | inactive: 0.057 | inactive: 0.003 | inactive: 0.092 | inactive: -0.026 |
| TNFAIP3 (UniProt P21580) | inactive: -0.032 | inactive: 0.052 | inactive: -0.013 | inactive: 0.032 | inactive: 0.038 | inactive: -0.075 | inactive: 0.744 | inactive: 0.084 | inactive: -0.02 | inactive: -0.023 | inactive: 0.038 | inactive: -0.01 | inactive: -0.002 | inactive: -0.04 | inactive: 0.033 | inactive: 0.008 | inactive: -0.068 | inactive: 0.025 | inactive: 0.01 | inactive: 0.003 |
| TPM1 (UniProt H7BYY1) | inactive: 0.028 | inactive: 0.042 | inactive: 0.096 | inactive: 0.063 | inactive: -0.004 | inactive: -0.118 | inactive: 0.012 | inactive: -0.025 | inactive: 0.026 | inactive: -0.158 | inactive: 0.014 | inactive: -0.111 | inactive: -0.023 | inactive: 0.028 | inactive: 0.02 | inactive: 0.101 | inactive: 0.059 | inactive: -0.017 | inactive: 0.013 | inactive: 0.033 |
| TOR1B (UniProt O14657) | inactive: -0.013 | inactive: -0.033 | inactive: -0.01 | inactive: -0.03 | inactive: 0.01 | inactive: 0.048 | inactive: 0.095 | inactive: 0.058 | inactive: -0.054 | inactive: 0.003 | inactive: 0.045 | inactive: -0.01 | inactive: -0.018 | inactive: 0 | inactive: 0.034 | inactive: -0.073 | inactive: -0.059 | inactive: 0.008 | inactive: 0.003 | inactive: -0.023 |
| TOM1 isoform 2 (UniProt O60784) | inactive: 0.036 | inactive: 0.007 | inactive: -0.065 | inactive: -0.009 | inactive: 0.023 | inactive: 0.019 | inactive: -0.031 | inactive: 0.045 | inactive: -0.024 | inactive: 0.029 | inactive: -0.018 | inactive: 0.035 | inactive: -0.002 | inactive: -0.003 | inactive: -0.047 | inactive: -0.087 | inactive: -0.053 | inactive: 0.003 | inactive: 0.045 | inactive: -0.025 |
| TMEM30A (UniProt Q9NV96) | inactive: 0 | inactive: 0.029 | inactive: 0.005 | inactive: -0.013 | inactive: -0.203 | inactive: 0.013 | inactive: 0.008 | inactive: 0.022 | inactive: 0.118 | inactive: -0.013 | inactive: 0.002 | inactive: 0.02 | inactive: 0.041 | inactive: -0.056 | inactive: 0.159 | inactive: 0 | inactive: -0.12 | inactive: -0.038 | inactive: 0.02 | inactive: 0.022 |
| TPP2 (UniProt Q5VZU9) | inactive: -0.023 | inactive: 0.069 | inactive: -0.057 | active: -0.309 | inactive: 0.02 | inactive: 0.104 | inactive: -0.087 | inactive: -0.029 | inactive: -0.044 | inactive: 0.137 | inactive: 0.066 | inactive: 0.035 | inactive: -0.194 | inactive: -0.015 | inactive: 0.036 | inactive: 0.084 | inactive: -0.001 | inactive: 0.107 | inactive: -0.006 | inactive: -0.039 |
| TMEM189 (UniProt A5PLL7) | inactive: -0.02 | inactive: -0.21 | inactive: 0.067 | inactive: -0.144 | inactive: 0.329 | inactive: 0.108 | inactive: -0.058 | inactive: 0.052 | inactive: -0.15 | inactive: 0.003 | inactive: 0.023 | inactive: 0.061 | inactive: -0.001 | inactive: -0.026 | inactive: -0.198 | inactive: -0.157 | inactive: 0.036 | inactive: 0.062 | inactive: 0.056 | inactive: -0.032 |

Part of the list above, as comma-separated lines.
Target,log2 fold change (lapatinib),log2 fold change (pictilisib),log2 fold change (crizotinib),log2 fold change [1],log2 fold change (duvelisib),log2 fold change (gandotinib),log2 fold change (tozasertib),log2 fold change (doramapimod),log2 fold change (bafetinib),log2 fold change [2],log2 fold change (nilotinib),log2 fold change [3],log2 fold change (dasatinib),log2 fold change [4],log2 fold change [5],log2 fold change (quisinostat),log2 fold change (tipifarnib),log2 fold change [6],log2 fold change [7],log2 fold change [8]
TOR1B (UniProt O14657),inactive: -0.013,inactive: -0.033,inactive: -0.01,inactive: -0.03,inactive: 0.01,inactive: 0.048,inactive: 0.095,inactive: 0.058,inactive: -0.054,inactive: 0.003,inactive: 0.045,inactive: -0.01,inactive: -0.018,inactive: 0,inactive: 0.034,inactive: -0.073,inactive: -0.059,inactive: 0.008,inactive: 0.003,inactive: -0.023
TOM1 isoform 2 (UniProt O60784),inactive: 0.036,inactive: 0.007,inactive: -0.065,inactive: -0.009,inactive: 0.023,inactive: 0.019,inactive: -0.031,inactive: 0.045,inactive: -0.024,inactive: 0.029,inactive: -0.018,inactive: 0.035,inactive: -0.002,inactive: -0.003,inactive: -0.047,inactive: -0.087,inactive: -0.053,inactive: 0.003,inactive: 0.045,inactive: -0.025
TMEM30A (UniProt Q9NV96),inactive: 0,inactive: 0.029,inactive: 0.005,inactive: -0.013,inactive: -0.203,inactive: 0.013,inactive: 0.008,inactive: 0.022,inactive: 0.118,inactive: -0.013,inactive: 0.002,inactive: 0.02,inactive: 0.041,inactive: -0.056,inactive: 0.159,inactive: 0,inactive: -0.12,inactive: -0.038,inactive: 0.02,inactive: 0.022
